From paper PMC9788671
Results are given in words; binding and its absence hold for the method and conditions named. In cells and extracts the contact can be indirect. These calls come from enrichment with a bait or labelling near it, and not all partners need be listed.

Sequences of proteins named here, by UniProt entry; tags and fusion partners are left off.
UniProt Q9NZV8: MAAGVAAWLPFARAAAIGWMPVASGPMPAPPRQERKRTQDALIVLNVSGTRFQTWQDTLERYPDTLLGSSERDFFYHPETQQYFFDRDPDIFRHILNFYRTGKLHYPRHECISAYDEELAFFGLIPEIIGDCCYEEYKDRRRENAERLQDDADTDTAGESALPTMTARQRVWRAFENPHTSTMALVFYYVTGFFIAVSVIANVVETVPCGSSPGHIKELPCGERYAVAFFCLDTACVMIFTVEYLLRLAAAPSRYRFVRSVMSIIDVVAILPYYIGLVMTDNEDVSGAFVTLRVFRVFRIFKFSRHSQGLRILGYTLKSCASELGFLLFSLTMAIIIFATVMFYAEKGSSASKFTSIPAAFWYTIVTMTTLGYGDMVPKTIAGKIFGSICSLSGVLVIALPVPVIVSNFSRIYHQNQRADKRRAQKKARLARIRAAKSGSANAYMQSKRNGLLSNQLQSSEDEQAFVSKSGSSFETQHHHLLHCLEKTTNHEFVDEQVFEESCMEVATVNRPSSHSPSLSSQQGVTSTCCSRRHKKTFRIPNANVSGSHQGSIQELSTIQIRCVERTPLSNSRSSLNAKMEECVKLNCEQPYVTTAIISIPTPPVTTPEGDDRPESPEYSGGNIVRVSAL

Molecular target: TAP-Kv4.2 (human) (UniProt Q9NZV8)
Test: affinity purification with mass spectrometry; TAP-Kv4.2 expressed by lentivirus in rat hippocampal neurons, harvested at DIV14; weak lysis buffer of the kit (0.1% NP-40); streptavidin resin, then calmodulin resin; gel cut into high and low molecular weight fragments; no MS of the control sample

B1: Fabp4 (protein, UniProt P70623 1-132)
chain: MCDAFVGTWKLVSSENFDDYMKEVGVGFATRKVAGMAKPNLIISVEGDLVVIRSESTFKNTEISFKLGVEFDEITPDDRKVKSIITLDGGVLVHVQKWDGKSTTIKKRRDGDKLVVECVMKGVTSTRVYERA
With B1 the binding was “binds”.

B2: Pgk1 (protein, UniProt P16617 1-417)
chain: MSLSNKLTLDKLDVKGKRVVMRVDFNVPMKNNQITNNQRIKAAVPSIKFCLDNGAKSVVLMSHLGRPDGVPMPDKYSLEPVAAELKSLLGKDVLFLKDCVGSEVENACANPAAGTVILLENLRFHVEEEGKGKDASGNKVKAEPAKIDAFRASLSKLGDVYVNDAFGTAHRAHSSMVGVNLPQKAGGFLMKKELNYFAKALESPERPFLAILGGAKVADKIQLINNMLDKVNEMIIGGGMAFTFLKVLNNMEIGTSLYDEEGAKIVKDLMAKAEKNGVKITLPVDFVTADKFDENAKTGQATVASGIPAGWMGLDCGTESSKKYAEAVARAKQIVWNGPVGVFEWEAFARGTKSLMDEVVKATSRGCITIIGGGDTATCCAKWNTEDKVSHVSTGGGASLELLEGKVLPGVDALSNV
For B2, the binding was “binds”.

B3: Slc4a1 (protein, UniProt P23562 1-927)
chain: MGDMQDHEKVLEIPDRDSEEELEHVIEQIAYRDLDIPVTEMQESEALPTEQTATDYIPTSTSTSHPSSSQVYVELQELMMDQRNQELQWVEAAHWIGLEENLREDGVWGRPHLSYLTFWSLLELQKVFSKGTFLLDLAETSLAGVANKLLDSFIYEDQIRPQDRDELLRALLLKRSHAEDLKDLEGVKPAVLTRSGAPSEPLLPHQPSLETKLYCAQAEGGSEEPSPSGILKIPPNSETTLVLVGRASFLVKPVLGFVRLKEAVPLEDLVLPEPVSFLLVLLGPEAPHIDYTQLGRAAATLMTERVFRVTASLAQSRGELLSSLDSFLDCSLVLPPTEAPSEKALLNLVPVQKELLRKRYLPRPAKPDPNLYEALDGGKEGPGDEDDPLRRTGRIFGGLIRDIRRRYPYYLSDITDALSPQVLAAVIFIYFAALSPAVTFGGLLGEKTRNLMGVSELLISTAVQGILFALLGAQPLLVLGFSGPLLVFEEAFYSFCESNNLEYIVGRAWIGFWLILLVVLVVAFEGSFLVQYISRYTQEIFSFLISLIFIYETFSKLIKIFQDYPLQESYAPVVMKPKPQGPVPNTALLSLVLMVGTFLLAMMLRKFKNSTYFPGKLRRVIGDFGVPISILIMVLVDTFIKNTYTQKLSVPDGLKVSNSSARGWVIHPLGLYNHFPKWMMFASVLPALLVFILIFLESQITTLIVSKPERKMIKGSGFHLDLLLVVGMGGVAALFGMPWLSATTVRSVTHANALTVMGKASGPGAAAQIQEVKEQRISGLLVSVLVGLSILMEPILSRIPLAVLFGIFLYMGITSLSGIQLFDRILLLFKPPKYHPDVPFVKRVKTWRMHLFTGIQIICLAVLWVVKSTPASLALPFVLILTVPLRRLLLPLIFRELELQCLDGDDAKVTFDEAEGLDEYDEVPMPV
With B3 the binding was “binds”.

B4: Pygb (protein, UniProt P53534 1-838)
chain: MAKPLTDSERQKQISVRGIAGLGDVAEVRKSFNRHLHFTLVKDRNVATPRDYFFALAHTVRDHLVGRWIRTQQHYYERDPKRIYYLSLEFYMGRTLQNTMVNLGLQTACDEATYQLGLDLEELEEIEEDAGLGNGGLGRLAACFLDSMATLGLAAYGYGIRYEFGIFNQKIVNGWQVEEADDWLRYGNPWEKARPEYMLPVHFYGRVEHTPNGVLWLDTQVVLAMPYDTPVPGYKNNTVNTMRLWSAKAPNDFKLKDFNVGDYIEAVLDRNLAENISRVLYPNDNFFEGKELRLKQEYFVVAATLQDIIRRFKSSKFGCRDPVRTCFETFPDKVAIQLNDTHPALSIPELMRILVDVEKVDWDKAWEITKKTCAYTNHTVLPEALERWPVSMFEKLLPRHLEIIYAINQRHLDHVAALFPGDVDRLRRMSVIEEGDCKRINMAHLCVIGSHAVNGVARIHSEIVKQSVFKDFYELEPEKFQNKTNGITPRRWLLLCNPGLAEIIVERIGEGFLTDLSQLKKLLSLVDDEAFIRDVAKVKQENKLKFSAQLEKEYKVKINPCSMFDVHVKRIHEYKRQLLNCLHIITLYNRIKKDPTKTFVPRTVMIGGKAAPGYHMAKMIIKLVTSIGDVVNHDPVVGDRLRVIFLENYRVSLAEKVIPAADLSQQISTAGTEASGTGNMKFMLNGALTIGTMDGANVEMAEEAGEENLFIFGMRVEDVEALDQKGYNAQEFYERLPELRQAVDQISSGFFSPKDPDCFKDVVNMLMYHDRFKVFADYEAYIQCQAQVDHLYRNPKDWTKKVIRNIACSGKFSSDRTITEYAREIWGVEPSDLQIPPP
For B4, the binding was “binds”.

B5: Pfkl (protein, UniProt P30835 1-780)
chain: MATVDLEKLRMSGAGKAIGVLTSGGDAQGMNAAVRAVTRMGIYVGAKVFLIYEGYEGLVEGGENIKPANWLSVSNIIQLGGTIIGSARCKAFTTREGRLAAAYNLLQHGITNLCVIGGDGSLTGANIFRNEWGSLLEELVKEGKISESTAQNYAHLSIAGLVGSIDNDFCGTDMTIGTDSALHRIMEVIDAITTTAQSHQRTFVLEVMGRHCGYLALVSALASGADWLFIPEAPPEDGWENFMCERLGETRSRGSRLNIIIIAEGAIDRHGKPISSSYVKDLVVQRLGFDTRVTVLGHVQRGGTPSAFDRVLSSKMGMEAVMALLEATPDTPACVVSLSGNQSVRLPLMECVQVTKDVQKAMDEKRFDEAIQLRGRSFENNWKIYKLLAHQKVSKEKSNFSLAILNVGAPAAGMNAAVRSAVRTGISEGHTVYVVHDGFEGLAKGQVQEVGWHDVAGWLGRGGSMLGTKRTLPKPHLEAIVENLRTYNIHALLVIGGFEAYEGVLQLVEARGRYEELCIVMCVIPATISNNVPGTDFSLGSDTAVNAAMESCDRIKQSASGTKRRVFIVETMGGYCGYLATVTGIAVGADAAYVFEDPFNIHDLKANVEHMTEKMKTDIQRGLVLRNEKCHEHYTTEFLYNLYSSEGRGVFDCRTNVLGHLQQGGAPTPFDRNYGTKLGVKAMLWMSEKLRDVYRKGRVFANAPDSACVIGLRKKVVAFSSVTELKKETDFEHRMPREQWWLNLRLMLKMLAHYRISMADYVSGELEHVTRRTLSIDKGF
In the case of B5, the binding is reported as “binds”.

B6: Ina (protein, UniProt P23565 1-505)
chain: MSFGSEHYLCSASSYRKVFGDGSRLSARLSGPGASGSFRSQSLSRSNVASTAACSSASSLGLGLAYRRLPASDGLDLSQAAARTNEYKIIRTNEKEQLQGLNDRFAVFIEKVHQLETQNRALEAELAALRQRHAEPSRVGELFQRELRELRAQLEEASSARAQALLERDGLAEEVQRLRARCEEESRGREGAERALKAQQRDVDGATLARLDLEKKVESLLDELAFVRQVHDEEVAELLATLQASSQAAAEVDVAVAKPDLTSALREIRAQYESLAAKNLQSAEEWYKSKFANLNEQAARSTEAIRASREEIHEYRRQLQARTIEIEGLRGANESLERQILELEERHSAEVAGYQDSIGQLESDLRNTKSEMARHLREYQDLLNVKMALDIEIAAYRKLLEGEETRFSTSGLSISGLNPLPNPSYLLPPRILSSTTSKVSSAGLSLKKEEEEEEEEEEGASKEVTKKTSKVGESFEETLEETVVSTKKTEKSTIEEITTSSSQKM
For B6, the binding was “binds”.

B7: Acsbg1 (protein, UniProt Q924N5 1-721)
chain: MPRSSEAGYCCLSRDSNMPDSRDDQQQGASMGTSPDNSQTSSLIDGRTLSKESPSHGLELSAPEKARAASLDASEEALWTTRADGRVRLRLEPFCTQLPYTVHQMFYEALDKYGNLSALGFKRKDKWERISYYQYYLIARKVAKGFLKLGLERAHSVAILGFNSPEWFFSAVGTVFAGGIVTGIYTTSSPEACQYIAHDCRANVIVVDTQKQLEKILKIWKDLPHLKAVVIYQEPPPKKMANVYTMEELIELGQEVPEEALDAIIDTQQPNQCCVLVYTSGTTGNPKGVMLSQDNITWTARYGSQAGDIQPAEVQQEVVVSYLPLSHIAAQIYDLWTGIQWGAQVCFADPDALKGTLVNTLREVEPTSHMGVPRVWEKIMERIQEVAAQSGFIRRKMLLWAMSVTLEQNLTCPSNDLKPFTSRLADYLVLARVRQALGFAKCQKNFYGAAPMTAETQRFFLGLNIRLYAGYGLSESTGPHFMSSPYNYRLYSSGRVVPGCRVKLVNQDADGIGEICLWGRTIFMGYLNMEDKTHEAIDSEGWLHTGDMGRLDDDGFLYITGRLKELIITAGGENVPPVPIEEAVKMELPIISSAMLIGDQRKFLSMLLTLKCTLNPETSEPTDNLTEQAVEFCQRVGSKASTVSEIVGQKDEAVYQAIHEGIQRVNANAAARPYHIQKWAILERDFSISGGELGPTMKLKRLTVLEKYKDIIDSFYQEQKQ
In the case of B7, the binding is reported as “binds”.

B8: Pfkp (protein, UniProt P47860 1-788)
chain: MSDQDSSTSSTSFPKYLEHLSGDGKAIGVLTSGGDAQGMNAAVRAVVRMGIYTGAKVYFIYEGYQGMVDGGSNIVEAKWECVSSILQVGGTIIGSARCQAFRSREGRLKAACNLVRLGITNLCVIGGDGSLTGANLFRKEWSGLLEELAKNGEIDSDTVKKHAYLNVVGMVGSIDNDFCGTDMTIGTDSALHRIIEVVDAIMTTAQSHQRTFVLEVMGRHCGYLALVSALACGADWVFLPESPPEEGWEEEMCLKLSENRARKKRLNIIIVSEGAIDTQNKPITSEKIKELVVTNLGFDTRVTILGHVQRGGTPSAFDRILASRMGVEAVLALLEATPETPACVVSLRGNQAVRLPLMECVQMTQDVQKAMDERRFDEAVKLRGRSFEGNLNTYKRLAIKEPDDKIPKSNCNVAIINVGAPAAGMNAAVRSAVRVGIAEGHKMFAIYDGFDGLANGQIKEIGWGDVGGWTGQGGSILGTKRTLPGKYLEKIAEQMHSKNINALLIIGGFEAYLGLLELAAARNKHEAFCVPMVMVPATVSNNVPGSDFSIGADTALNTITDTCDRIKQSASGTKRRVFIIETMGGYCGYLANMGGLAAGADAAYIFEEQFDIRDLQSNVMHLTEKMKTSIQRGLVLRNENCSVNYTTDFIYQLYSEEGKGVFDCRKNVLGHMQQGGAPSPFDRNFGTKISAKAMEWISAKLKGSHGTGKKFVSDDSICVLGIQKRDLLFKPVAELRKATDFEHRIPKQQWWLKLRPIMKILAKYEASYDMSDVGKLEPVHNHGELSAI
For B8, the binding was “binds”.

B9: Hsph1 (protein, UniProt Q66HA8 1-858)
chain: MSVVGLDVGSQSCYIAVARAGGIETIANEFSDRCTPSVISFGPKNRTIGVAAKNQQITHANNTVSSFKRFHGRAFNDPFIQKEKENLSYDLVPMKNGGVGIKVMYMDEDHLFSVEQITAMLLTKLKETAENNLKKPVTDCVISVPSFFTDAERRSVLDAAQIVGLNCLRLMNDMTAVALNYGIYKQDLPNADEKPRVVVFVDMGHSSFQVSACAFNKGKLKVLGTAFDPFLGGKNFDEKLVEHFCAEFKTKYKLDAKSKIRALLRLHQECEKLKKLMSSNSTDLPLNIECFMNDKDVSAKMNRSQFEELCAELLQKIEVPLHLLMEQTHLKTEEVSAIEIVGGATRIPAVKERIARFFGKDVSTTLNADEAVARGCALQCAILSPAFKVREFSVTDAVPFPISLVWNHDSEETEGVHEVFSRNHAAPFSKVLTFLRRGPFELEAFYSDPQAVPYPEAKIGRFVVQNVSAQKDGEKSKVKVKVRVNTHGIFTISTASMVEKVPTEEEDGSSVEADMECPNQKPAESSDVDKNIQQDNSEAGTQPQVQTDGQQTSQSPPSPELTSEENKIPDADKANEKKVDQPPEAKKPKIKVVNVELPVEANLVWQLGRDLLNMYIETEGKMIMQDKLEKERNDAKNAVEECVYEFRDKLCGPYEKFICEQEHEKFLRLLTETEDWLYEEGEDQAKQAYIDKLEELMKMGTPVKVRFQEAEERPRVLEELGQRLQHYAKIAADFRGKDEKYNHIDESEMKKVEKSVNEVMEWMNNVMNAQAKRSLHQDPVVRTHEISAKVKELNNVCEPVVTQPKPKIESPKLERTPNGPNMDKKEDLEGKSNLGADAPHQNGECHPNEKGSVSMDLD
With B9 the binding was “binds”.
